The subject of this data set is sectioned sciatic nerve; common extensor muscle of the finger. As to the kind of experiment: Muscle weight after sciatic nerve section. The class given is in vivo, rat.

SMILES strings stand for the structures. Square brackets hold non-standard residues; d marks the D form. Peptide text beside a SMILES is read from it.

In the case of `C[C@@H](N)C(=O)N[C@@H](CCC(N)=O)C(=O)N[C@@H](Cc1ccc(O)cc1)C(=O)N[C@@H](Cc1ccccc1)C(=O)N[C@@H](CCCNC(=N)N)C(=O)N[C@@H](Cc1c[nH]c2ccccc12)C(=O)NCC(N)=O` [BIM-22015, D--Ala--Gln--Tyr--Phe--Arg--Trp--Gly--NH2] (H-[dA]QYFRWG-NH2), the “Animal Weight 35d. p.o.” value by setting is: (Group 2: Tissue col 10.0 μg/0.5 ml (topical)) 321.0 g; (Group 3: Tissue col 1.1 μg/10.5 ml (topical)) 280.5 g; (Group 4: s.c. 5 μg 1 kg/day (18 days)) 322.5 g. Also, under “s.c. administration”, the “association of the increase in muscle weight with edema or lipid infiltration” value is recorded as “not associated with edema or lipid infiltration”.

The values are drawn from patent US5462927A, “Peptides aiding nerve regeneration” (The Administrators of the Tulane Educational Fund, priority 1992, dated 1995).
